Measurements from publication PMC8726614.
No constants are given. Whether binding was seen depends on the method and setting. Binding seen in cells or lysates may run through a third protein. A result given as binding can be weak or reduced; the word gives no strength.

Protein sequences, listed by entry. Tags and fused reporters are not part of them. Lines headed by an entry give the natural chain unless they say otherwise; changes in a name come on top.
UniProt B7UMC1: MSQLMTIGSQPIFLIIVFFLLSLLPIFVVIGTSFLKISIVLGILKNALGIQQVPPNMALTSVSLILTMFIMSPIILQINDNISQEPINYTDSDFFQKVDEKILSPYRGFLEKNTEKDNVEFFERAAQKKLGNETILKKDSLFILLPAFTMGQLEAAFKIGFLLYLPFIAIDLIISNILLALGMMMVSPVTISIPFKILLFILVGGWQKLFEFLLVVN
UniProt B7UMC0: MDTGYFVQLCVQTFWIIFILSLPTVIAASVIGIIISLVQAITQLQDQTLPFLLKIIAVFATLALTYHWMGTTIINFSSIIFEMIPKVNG

Molecular target: EscR-3HA (from the pEscRST plasmids, in E. coli BL21) (enteropathogenic E. coli (EPEC) O127:H6 strain E2348/69) (UniProt B7UMC1)
Assay: pull-down

Substance: EscS-V5 (from pEscR-3HA/EscS-V5/EscT-His, in E. coli BL21) (from UniProt B7UMC0)
- binding: binds
